Data as given in PubChem BioAssay AID504808 (Drosophila RNAi Screening Center, 2011).
In all, the deposit lists about 21,000 reagents; shown is a random part of those with a known target gene and a result. Of all reagents, 18 (0.084%) got an active call. 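Raw counts without plate normalisation, one of two replicates; the ratio scores behind the calls were not deposited.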 Reagents against one gene are numbered here. Names joined by + are all predicted targets of the reagent. The record does not give: the amount of reagent, the time to read-out.

Aim: 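Chromatin factors that keep E2F targets switched off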 (primary screen)
System: Drosophila S2 cells
Reagents: long dsRNA against Drosophila genes
Detection: 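Firefly luciferase driven by E2F sites, normalised to Renilla luciferase on the same minimal promoter, measured by plate reader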
Direction: E2F firefly: higher = more E2F reporter activity; Renilla normaliser: higher = more normaliser reporter signal
Active means: 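a knock-down counted as active when the firefly/Renilla E2F signal rose above 50%, a threshold chosen arbitrarily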

Target gene | dsRNA no. | E2F firefly, rep 1 | Renilla normaliser, rep 1 | call
Rabex-5 | 1 | 77444 | 3237 | inactive
CG8916 | 1 | 1.65e5 | 7010 | inactive
CG15337 | 1 | 1.16e5 | 5225 | inactive
CG33768 | 1 | 1.18e5 | 6737 | inactive
elav | 1 | 1930 | 844 | inactive
CG10748 | 1 | 1.34e5 | 7388 | inactive
thoc7 | 1 | 71467 | 3478 | inactive
ind | 1 | 1.20e5 | 5703 | inactive
T48 | 1 | 1.16e5 | 5801 | inactive
CG34386 | 1 | 1.38e5 | 5060 | inactive
CG34386 | 2 | 1.47e5 | 5161 | inactive
eIF4H2 | 1 | 1666 | 868 | inactive
Nrg | 1 | 92577 | 2621 | inactive
Nrg | 2 | 7418 | 728 | inactive
Rga | 1 | 1.79e5 | 6890 | inactive
Sec16 | 1 | 1.17e5 | 5979 | inactive
Sec16 | 2 | 1.30e5 | 6520 | inactive
Bmcp | 1 | 64606 | 2987 | inactive
nerfin-1 | 1 | 84524 | 3667 | inactive
CG30122 | 1 | 66334 | 3591 | inactive
CG30122 | 2 | 1.60e5 | 5270 | inactive
robl22E | 1 | 1.81e5 | 6287 | inactive
ImpL1 | 1 | 79823 | 3755 | inactive
PI31 | 1 | 3905 | 29 | inactive
DIP-beta | 1 | 80240 | 2493 | inactive
DIP-beta | 2 | 1.33e5 | 6301 | inactive
DIP-beta | 3 | 1.41e5 | 5516 | inactive
DIP-beta | 4 | 1.30e5 | 6913 | inactive
CG31928 | 1 | 84966 | 4374 | inactive
speck | 1 | 82218 | 3309 | inactive
CG43795 | 1 | 1.11e5 | 5049 | inactive
CG43795 | 2 | 1.11e5 | 4734 | inactive
CG43795 | 3 | 1.00e5 | 4106 | inactive
CG43795 | 4 | 1.01e5 | 4541 | inactive
CG43795 | 5 | 1.02e5 | 4087 | inactive
CG17233 | 1 | 70016 | 3308 | inactive
RNF220 | 1 | 68882 | 3644 | inactive
spag | 1 | 1.12e5 | 4825 | inactive
ex | 1 | 95282 | 4026 | inactive
CG10195 | 1 | 96931 | 4103 | inactive
CG9254 | 1 | 1.19e5 | 4930 | inactive
CG31460 | 1 | 69098 | 3323 | inactive
Arf4 | 1 | 43920 | 4046 | inactive
Orai | 1 | 1.66e5 | 5388 | inactive
tws | 1 | 72118 | 3621 | inactive
tws | 2 | 81295 | 4164 | inactive
O-fut1 | 1 | 2599 | 220 | inactive
Adf1 | 1 | 1.43e5 | 4910 | inactive
Adf1 | 2 | 78013 | 3502 | inactive
Ssl2 | 1 | 1.11e5 | 5634 | inactive
CG3769 | 1 | 1.45e5 | 4622 | inactive
CG8531 | 1 | 2932 | 240 | inactive
CG13924 | 1 | 98156 | 4208 | inactive
CG8079 | 1 | 83143 | 3737 | inactive
CG8079 | 2 | 1.06e5 | 3754 | inactive
Rh7 | 1 | 68872 | 3408 | inactive
CG1632 | 1 | 79944 | 3403 | inactive
CG1632 | 2 | 1.09e5 | 5612 | inactive
Ire1 | 1 | 1.54e5 | 7423 | inactive
Ref1 | 1 | 65510 | 3279 | inactive
CG11262 | 1 | 1.41e5 | 8470 | inactive
slmb | 1 | 76016 | 4965 | inactive
scaf6 | 1 | 73075 | 3387 | inactive
scaf6 | 2 | 1.79e5 | 6792 | inactive
scaf6 | 3 | 1.31e5 | 5198 | inactive
CG13794 | 1 | 1.60e5 | 4932 | inactive
CG15629 | 1 | 1.45e5 | 4512 | inactive
AspRS-m | 1 | 1.06e5 | 4265 | inactive
CG3764 | 1 | 74212 | 3532 | inactive
knon | 1 | 1.45e5 | 5471 | inactive
Mst57Da + alpha4GT2 | 1 | 97144 | 2359 | inactive
CG15673 | 1 | 99855 | 4559 | inactive
ATPsyndelta | 1 | 98931 | 5570 | inactive
CG17378 | 1 | 1.41e5 | 5061 | inactive
ci | 1 | 1.18e5 | 5258 | inactive
kumpel | 1 | 1.25e5 | 6738 | inactive
kumpel | 2 | 1.17e5 | 6503 | inactive
kumpel | 3 | 1.13e5 | 5545 | inactive
kumpel | 4 | 1.08e5 | 5960 | inactive
kumpel | 5 | 1.10e5 | 6403 | inactive
kumpel | 6 | 95275 | 5970 | inactive
COX6AL2 | 1 | 1.08e5 | 5532 | inactive
Ets65A | 1 | 92941 | 3466 | inactive
Ets65A | 2 | 90319 | 3804 | inactive
Ets65A | 3 | 71988 | 3582 | inactive
